PubChem BioAssay AID504791, Drosophila RNAi Screening Center | 2011
The deposit covers about 23,000 reagents; below is an unselected part of those that have a named target and a result. In the full data, 199 (0.86%) are marked active. 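Plate-scaled ratios behind the calls are not deposited; printed light signals are raw; many rows marked increased or decreased are still called inactive.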 Entries without a mark were called inactive. A plus sign joins genes that one reagent is predicted to hit. No sequences are given here. Not given: the direction of the score.

- Aim: 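Factors in Argonaute-based small RNA production and activity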 (primary screen)
- Cell system: Drosophila S2-derived reporter cells
- Reagents: long dsRNA against Drosophila genes, about 150-250 ng dsRNA per well (siRNA assay); about 80-120 ng (miRNA assay)
- Timing: about 5 days (siRNA assay); about 4 days (miRNA assay)
- Conditions: copper sulfate induction of reporters: 25 µM (siRNA assay); 200 mM stated (miRNA assay), 1-2 days before reading
- Measurement: 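Per-well ratio of Renilla over firefly light, expressed relative to that plate's average ratio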
- Rule for the call: 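a well was a first-pass pick when its plate-scaled ratio rose above 1.5 (siRNA assay) or 1.6 (miRNA assay), or dropped below 0.6; a gene counted only if two separate dsRNAs agreed on retest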

target gene	DRSC id	stable siRNA reporter change	miRNA reporter change	stable assay Renilla, run 1 (luminescence)	stable assay firefly, run 1 (luminescence)
Fgop2	DRSC02016			6760	1.30e5
CG33287	DRSC22929			5271	4.01e5
CG7381	DRSC16238			9035	5.12e5
CG33268	DRSC10143			5396	4.01e5
asun	DRSC16733		reporter ratio raised past the hit cutoff (active)	22147	5.87e5
CG13877 + pyx	DRSC08347			6103	3.66e5
CG31036	DRSC15055			5603	2.99e5
CG31036	DRSC15057			5900	3.15e5
PPO1	DRSC05929			11649	4.11e5
sphe	DRSC20203			6942	5.86e5
Vha13	DRSC16895			6611	3.40e5
Est-Q	DRSC11835			9193	3.96e5
morgue	DRSC00264			15081	1.09e6
CG5853	DRSC01103			6120	4.03e5
CG5853	DRSC02906			7684	2.89e5
Prip	DRSC07044			8247	5.34e5
GLaz	DRSC07431			6568	4.15e5
CG31406	DRSC12777			5419	3.97e5
Lrr47	DRSC03365	reporter ratio lowered past the hit cutoff	reporter ratio lowered past the hit cutoff	7454	7.79e5

Part of the list above, set out differently.
| target gene | DRSC id | stable siRNA reporter change | miRNA reporter change | stable assay Renilla, run 1 (luminescence) | stable assay firefly, run 1 (luminescence) |
| --- | --- | --- | --- | --- | --- |
| morgue | DRSC00264 | – | – | 15081 | 1.09e6 |
| CG5853 | DRSC01103 | – | – | 6120 | 4.03e5 |
| CG5853 | DRSC02906 | – | – | 7684 | 2.89e5 |
| Prip | DRSC07044 | – | – | 8247 | 5.34e5 |
| GLaz | DRSC07431 | – | – | 6568 | 4.15e5 |

Continued.
target gene	DRSC id	stable siRNA reporter change	miRNA reporter change	stable assay Renilla, run 1 (luminescence)	stable assay firefly, run 1 (luminescence)
CG13921	DRSC08390			2820	3.09e5
CG18004	DRSC06705			8382	6.56e5
CG11600	DRSC14332			6539	4.24e5
fun (retired record)	DRSC12300			7791	4.47e5
CG11356	DRSC19401			4856	4.03e5
CG42521	DRSC10154			6880	6.33e5
CG10555	DRSC17748			4590	1.90e5
CG10555	DRSC23202			3628	3.49e5
DAAM	DRSC18479			3456	3.26e5
CG14621	DRSC20635			4907	3.31e5
IFT46	DRSC02462			6823	4.80e5
CG11634	DRSC03700			7519	3.25e5
CG17738	DRSC15257			6082	3.44e5
Bet5	DRSC14600			6075	4.71e5
alphaTry	DRSC07577			6392	3.79e5
